Measured values published in article PMC7377239, “Cardiovascular Effects of Polychlorinated Biphenyls and Their Major Metabolites” (Environmental Health Perspectives, 2020).
Counter-ions that a name gives are not always drawn.

test system: iPSC-CMs, iPSC-ECs and HUVECs phenotypes; test: ToxPi 2.0 integration of POD values and physicochemical descriptors; design: species or system human; conditions: HUVECs, 18 hr; scaled from POD
From the text: Phenotypic responses were quantitatively assessed using concentration–response modeling as detailed elsewhere ([Sirenko et al. 2017]). Briefly, phenotypic readouts were normalized to vehicle controls and fit to a four-parameter logistic model in R studio software (version 3.1.1; R Development Core Team). Following EPA guidance on dose–response modeling, a cutoff of one standard deviation across means of vehicle control (i.e., 0.5% vol/vol DMSO in cell culture media) wells was applied to determine the point-of-departure (POD) values ([U.S. EPA 2012]). In the absence of a concentration–response, the highest tested concentration (i.e., 100μM ) was assigned as “no observable adverse effect level.” The concentration–response assessment R script, as well as templates for vehicle and concentration–response data, are available as a supplement to Sirenko et al. ([2017]). The ability of physicochemical properties to predict differences in PODs were evaluated by multiregression and mixed-effects modeling using R.
POD values were then integrated using ToxPi 2.0 ([Marvel et al. 2018]) software. In ToxPi, each slice is representative of cell type– and time-point–specific phenotypes. The area of each slice is proportional to the relative value (e.g., bioactivity or physicochemical descriptor value) of the chemical within the data set. ToxPi scores were used to rank PCBs and their metabolites according to their overall bioactivity and to determine variability in total observable biological responses and chemical characteristics for each major metabolite class and chlorination status (mono-, hexa-chlorinated). Additional visualizations such as dumbbell and principal components analysis plots were generated in R Studio (version 1.1.456; R version 3.5.1; R Development Core Team) using the ggplot2 package.

SMILES	huvec.mtl.18hr ToxPi	huvec.tlps.18hr ToxPi	huvec.tta.18hr ToxPi	huvec.ttl.18hr ToxPi
COc1ccc(-c2ccc(Cl)cc2)cc1 [4'-OMe PCB3]	0.59	0.13	0.48	0.38
O=S(=O)(O)Oc1ccc(-c2ccc(Cl)cc2)cc1 [4'-yl PCB 3 sulfate]	0.49	0.00	0.27	0.00
Oc1ccc(-c2cccc(Cl)c2)cc1Cl [4-OH PCB11]	0.59	0.20	0.00	0.48

same assay, conditions: HUVECs, 24 hr; scaled from POD

SMILES	huvec.cyto.24hr ToxPi	huvec.mito.24hr ToxPi	huvec.mitoint.24hr ToxPi	huvec.nma.24hr ToxPi
COc1ccc(-c2ccc(Cl)cc2)cc1 [4'-OMe PCB3]	0.25	0.33	0.23	0.54
O=S(=O)(O)Oc1ccc(-c2ccc(Cl)cc2)cc1 [4'-yl PCB 3 sulfate]	0.00	0.00	0.00	0.00
Oc1ccc(-c2cccc(Cl)c2)cc1Cl [4-OH PCB11]	0.44	0.53	0.58	0.59

same assay, conditions: HUVECs, 24 hrs; scaled from POD

SMILES	huvec.tc.24hrs ToxPi
COc1ccc(-c2ccc(Cl)cc2)cc1 [4'-OMe PCB3]	0.25
O=S(=O)(O)Oc1ccc(-c2ccc(Cl)cc2)cc1 [4'-yl PCB 3 sulfate]	0.00
Oc1ccc(-c2cccc(Cl)c2)cc1Cl [4-OH PCB11]	0.44

same assay, conditions: iPSC-CM

SMILES	cm.amp.avg.24hrs ToxPi	cm.amp.avg.90min ToxPi	cm.amp.cv.24hrs ToxPi	cm.amp.cv.90min ToxPi	cm.bpm.24hrs ToxPi	cm.bpm.90min ToxPi	cm.cam.24hrs ToxPi	cm.cam.90min ToxPi	cm.decay.rise.24hrs ToxPi	cm.decay.rise.90min ToxPi
COc1ccc(-c2ccc(Cl)cc2)cc1 [4'-OMe PCB3]	0.15	0.15	0.00	0.23	0.43	0.42	0.0252	0.00	0.57	0.00
O=S(=O)(O)Oc1ccc(-c2ccc(Cl)cc2)cc1 [4'-yl PCB 3 sulfate]	0.00	0.66	0.00	0.26	0.00	0.19	0.00	0.00	0.00	0.46
Oc1ccc(-c2cccc(Cl)c2)cc1Cl [4-OH PCB11]	0.00	0.70	0.66	0.35	0.36	0.16	0.33	0.53	0.29	0.52

same assay, conditions: iPSC-CM

SMILES	cm.mii.24hrs ToxPi	cm.mii.90min ToxPi	cm.mito.24hrs ToxPi	cm.mito.90min ToxPi	cm.spacing.cv.24hrs ToxPi	cm.spacing.cv.90min ToxPi	cm.tc.24hrs ToxPi	cm.tc.90min ToxPi
COc1ccc(-c2ccc(Cl)cc2)cc1 [4'-OMe PCB3]	0.00	0.00	0.00	0.00	0.50	0.07	0.00	0.00
O=S(=O)(O)Oc1ccc(-c2ccc(Cl)cc2)cc1 [4'-yl PCB 3 sulfate]	0.17	0.00	0.00	0.00	0.00	0.10	0.00	0.00
Oc1ccc(-c2cccc(Cl)c2)cc1Cl [4-OH PCB11]	0.22	0.42	0.55	0.37	0.44	0.09	0.56	0.42

same assay, conditions: iPSC-EC tube formation, 18 hr; scaled from POD

SMILES	endo.mtl.18hr ToxPi	endo.tlps.18hr ToxPi	endo.tta.18hr ToxPi	endo.ttl.18hr ToxPi
COc1ccc(-c2ccc(Cl)cc2)cc1 [4'-OMe PCB3]	0.35	0.34	0.23	0.24
O=S(=O)(O)Oc1ccc(-c2ccc(Cl)cc2)cc1 [4'-yl PCB 3 sulfate]	0.33	0.34	0.16	0.20
Oc1ccc(-c2cccc(Cl)c2)cc1Cl [4-OH PCB11]	0.18	0.10	0.17	0.17

same assay, conditions: iPSC-EC, 24 hr; scaled from POD

SMILES	endo.cyto.24hr ToxPi	endo.mito.24hr ToxPi	endo.mitoint.24hr ToxPi	endo.nma.24hr ToxPi	endo.tc.24hrs ToxPi
COc1ccc(-c2ccc(Cl)cc2)cc1 [4'-OMe PCB3]	0.00	0.00	0.22	0.00	0.00
O=S(=O)(O)Oc1ccc(-c2ccc(Cl)cc2)cc1 [4'-yl PCB 3 sulfate]	0.00	0.00	0.00	0.00	0.00
Oc1ccc(-c2cccc(Cl)c2)cc1Cl [4-OH PCB11]	0.15	0.15	0.28	0.41	0.08
